Experimental data from patent publication US20080267948A1, “Croos-B Structure Binding Compounds” (priority 2005, published 2008).
Some results were stated once for a whole list of compounds, not compound by compound.

Sequences of proteins named here, by UniProt entry; tags and fusion partners are left off. Residues count along the entry.
UniProt P68871, 2-147 limits assumed: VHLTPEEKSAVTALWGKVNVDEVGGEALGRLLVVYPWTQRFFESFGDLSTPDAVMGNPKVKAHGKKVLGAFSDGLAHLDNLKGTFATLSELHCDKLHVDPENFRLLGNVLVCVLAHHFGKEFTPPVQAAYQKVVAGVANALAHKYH
UniProt P69905, 2-142 limits assumed: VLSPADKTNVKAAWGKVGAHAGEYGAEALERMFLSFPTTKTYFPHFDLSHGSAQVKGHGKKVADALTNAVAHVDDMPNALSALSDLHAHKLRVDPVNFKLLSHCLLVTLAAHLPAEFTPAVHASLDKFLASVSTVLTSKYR

Target: T1, Hb-AGE (glucose-6-phosphate modified human haemoglobin) (Homo sapiens, UniProt P68871+P69905)
T1 construct: purchased Sigma-Aldrich H7379
Assay: ELISA binding of tPA to immobilized Hb-AGE, compounds co-incubated with tPA
Conditions: 0.5 nM tPA, tenfold diluted 5 mg/ml compound stock, 10% DMSO, 1.25 μg/ml Hb-AGE coat, tPA without compound = 100%
Method: The small compound library is depicted in Tables 4-5. […] Binding experiments were performed in single wells per compound, in a duplicate experiment. Binding data obtained with this duplicate experiment was averaged.
• 1. […] Coat buffer in control wells. • 2. wash three times with wash buffer • 3. Block all wells with 300 μl 0.5*recommended concentration Roche blocking reagent for 30 minutes at room temperature, with agitation • 4. wash twice • 5. […] Incubate for 30 minutes at room temperature, with agitation • 7. wash five times with TBS/0.1% Tween20 • 8. […] Incubate for 30 minutes at room temperature, with agitation • 10. wash five times with TBS/0.1% Tween20 • 11. Fill wells with 3000× diluted horse raddish peroxidase-labeled polyclonal rabbit anti-mouse antibody (RAMPO, DAKOCytomation) • 12. Incubate for 20 minutes at room temperature, with agitation • 13. Wash five times with TBS/0.1% Tween20 • 14. Wash twice with PBS • 15. Stain with 100 μl TMB, stop with 50 μl 10% H2SO4 • 16. Read absorbance at 450 nm

| Molecule | tPA binding to Hb-AGE, when co-incubated with tPA, compared to buffer |
| --- | --- |
| COc1c2ccoc2cc2oc(=O)ccc12 [compound 173, 5-Methoxypsoralen, 99%] | (binding < 50% |
| O=c1ccc2cc3ccoc3cc2o1 [compound 167, Psoralen] | (binding < 50% |
| COc1ccc(C2CC(=O)c3c(O)cc(OC4OC(COC5OC(C)C(O)C(O)C5O)C(O)C(O)C4O)cc3O2)cc1O (stereo not drawn) [compound 164, Hesperidin, 80%] | (binding < 50% |
| C[C@H]1C(=O)O[C@@H]2CCN3CC=C(COC(=O)[C@](C)(O)[C@]1(C)O)[C@H]23 [compound 172, Monocrotaline] | (binding < 50% |
| CC1=NCCc2c1[nH]c1cc(O)ccc21 [compound 157] | (binding > 100% |
| Cc1cc2c(C(C)C)c(O)c(O)c(C=O)c2c(O)c1-c1c(C)cc2c(C(C)C)c(O)c(O)c(C=O)c2c1O [compound 220, GOSSYPOL from cotton seeds] | (binding > 100% |
| COC(C)C(O)(C(=O)OC1=CCN2CC[C@H](O)[C@@H]12)C(C)C (stereo partly drawn) [compound 50] | (binding < 50% |
| CN1[C@@H]2CC[C@H]1C[C@@H](OC(=O)C(CO)c1ccccc1)C2 (stereo partly drawn) [compound 146] | (binding < 50% |
| O=C(CCc1ccc(O)cc1)c1c(O)cc(O)cc1O [compound 134, Phloretin] | (binding > 100% |
| CC1=CC(=O)CC(C)(C)C1(O)/C=C/C(C)=C\C(=O)O (racemic) [compound 96, (±)-Abscisic acid] | (binding > 100% |
| karakoline from ranunculaceae family [compound 130] | (binding < 50% |
| COc1ccc2c(c1O)-c1c(OC)c(OC)cc3c1C(C2)N(C)CC3 (stereo not drawn) [compound 84] | (binding > 100% |
| CNC(=O)Oc1ccc2c(c1)C1(C)CCN(C)C1N2C (stereo not drawn) [compound 78] | (binding < 50% |
| O=c1cccc2n1CC1CC2CN2CCCC[C@H]12 (stereo partly drawn) [compound 198, Thermopsine] | (binding < 50% |
| COc1cc2c(cc1OC)C(C)NCC2 (stereo not drawn) [compound 34, Salsolidine] | (binding < 50% |
| CN1Cc2c(ccc3c2OCO3)C2C(O)Cc3cc4c(cc3C21)OCO4 (stereo not drawn) [compound 147] | (binding < 50% |
| COc1ccc2c3c1O[C@H]1C[C@@H](O)C=C[C@@]31CCN(C)C2 [compound 70, (−)Galanthamine] | (binding < 50% |
| c1cncc(C2CCCCN2)c1 (stereo not drawn) [compound 23, Anabasine] | (binding < 50% |
